Source: article PMC6626598

Protein sequences, listed by entry. Tags and fused reporters are not part of them. Lines headed by an entry give the natural chain unless they say otherwise; changes in a name come on top.
UniProt O95835: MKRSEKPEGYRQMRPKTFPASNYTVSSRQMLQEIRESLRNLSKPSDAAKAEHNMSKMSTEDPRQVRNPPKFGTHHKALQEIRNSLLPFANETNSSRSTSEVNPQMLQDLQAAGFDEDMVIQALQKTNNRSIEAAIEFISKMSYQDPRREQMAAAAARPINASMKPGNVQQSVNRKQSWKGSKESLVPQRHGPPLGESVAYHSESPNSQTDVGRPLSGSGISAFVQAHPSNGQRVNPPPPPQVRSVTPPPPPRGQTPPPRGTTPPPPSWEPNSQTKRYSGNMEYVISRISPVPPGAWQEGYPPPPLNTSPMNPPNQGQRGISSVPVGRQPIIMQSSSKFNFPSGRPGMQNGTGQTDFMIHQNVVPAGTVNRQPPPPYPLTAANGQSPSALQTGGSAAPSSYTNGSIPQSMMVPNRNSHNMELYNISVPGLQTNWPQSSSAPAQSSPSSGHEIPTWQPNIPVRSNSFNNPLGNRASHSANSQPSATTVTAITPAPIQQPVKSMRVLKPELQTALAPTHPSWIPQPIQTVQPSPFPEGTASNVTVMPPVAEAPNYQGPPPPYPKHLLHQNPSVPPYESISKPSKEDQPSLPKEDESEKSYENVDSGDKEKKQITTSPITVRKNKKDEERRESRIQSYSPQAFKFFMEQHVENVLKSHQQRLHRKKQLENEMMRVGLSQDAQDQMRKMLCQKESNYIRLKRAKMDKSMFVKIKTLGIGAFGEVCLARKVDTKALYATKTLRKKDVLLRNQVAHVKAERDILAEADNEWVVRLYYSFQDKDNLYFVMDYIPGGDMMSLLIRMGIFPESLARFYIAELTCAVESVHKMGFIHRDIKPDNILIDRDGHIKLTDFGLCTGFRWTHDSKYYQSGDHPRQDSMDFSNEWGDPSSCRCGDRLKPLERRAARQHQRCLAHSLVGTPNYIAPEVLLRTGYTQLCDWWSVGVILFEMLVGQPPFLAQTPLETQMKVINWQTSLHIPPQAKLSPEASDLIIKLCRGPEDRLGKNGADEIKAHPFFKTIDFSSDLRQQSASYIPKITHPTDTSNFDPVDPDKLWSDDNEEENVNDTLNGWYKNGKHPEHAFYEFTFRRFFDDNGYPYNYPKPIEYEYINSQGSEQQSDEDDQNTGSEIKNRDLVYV

Legend:
GST-LATS1 K1005R = GST-LATS1 K1005R (UniProt O95835); experiment: pull-down; HERC4 co-expressed with GST-LATS1 constructs in MCF-7 cells; GST-tagged bait on GST beads (Pierce GST Protein Interaction Pull-Down Kit), prey sample at 4 °C for at least 1 h; Western blot
GST-LATS1 K860R = GST-LATS1 K860R (UniProt O95835); experiment: as above

binding (GST-LATS1 K1005R): no binding | binding (GST-LATS1 K860R): no binding
B1: HERC4 (expressed from a vector with human HERC4 cDNA) (enzyme, UniProt Q5GLZ8 1-1057)
chain: MLCWGNASFGQLGLGGIDEEIVLEPRKSDFFINKRVRDVGCGLRHTVFVLDDGTVYTCGCNDLGQLGHEKSRKKPEQVVALDAQNIVAVSCGEAHTLALNDKGQVYAWGLDSDGQLGLVGSEECIRVPRNIKSLSDIQIVQVACGYYHSLALSKASEVFCWGQNKYGQLGLGTDCKKQTSPQLLKSLLGIPFMQVAAGGAHSFVLTLSGAIFGWGRNKFGQLGLNDENDRYVPNLLKSLRSQKIVYICCGEDHTAALTKEGGVFTFGAGGYGQLGHNSTSHEINPRKVFELMGSIVTEIACGRQHTSAFVPSSGRIYSFGLGGNGQLGTGSTSNRKSPFTVKGNWYPYNGQCLPDIDSEEYFCVKRIFSGGDQSFSHYSSPQNCGPPDDFRCPNPTKQIWTVNEALIQKWLSYPSGRFPVEIANEIDGTFSSSGCLNGSFLAVSNDDHYRTGTRFSGVDMNAARLLFHKLIQPDHPQISQQVAASLEKNLIPKLTSSLPDVEALRFYLTLPECPLMSDSNNFTTIAIPFGTALVNLEKAPLKVLENWWSVLEPPLFLKIVELFKEVVVHLLKLYKIGIPPSERRIFNSFLHTALKVLEILHRVNEKMGQIIQYDKFYIHEVQELIDIRNDYINWVQQQAYGMDVNHGLTELADIPVTICTYPFVFDAQAKTTLLQTDAVLQMQMAIDQAHRQNVSSLFLPVIESVNPCLILVVRRENIVGDAMEVLRKTKNIDYKKPLKVIFVGEDAVDAGGVRKEFFLLIMRELLDPKYGMFRYYEDSRLIWFSDKTFEDSDLFHLIGVICGLAIYNCTIVDLHFPLALYKKLLKKKPSLDDLKELMPDVGRSMQQLLDYPEDDIEETFCLNFTITVENFGATEVKELVLNGADTAVNKQNRQEFVDAYVDYIFNKSVASLFDAFHAGFHKVCGGKVLLLFQPNELQAMVIGNTNYDWKELEKNTEYKGEYWAEHPTIKIFWEVFHELPLEKKKQFLLFLTGSDRIPILGMKSLKLVIQSTGGGEEYLPVSHTCFNLLDLPKYTEKETLRSKLIQAIDHNEGFSLI

Results are given in words; binding and its absence hold for the method and conditions named. Binding seen in cells or lysates may run through a third protein.
